From article doi:10.1101/2021.06.28.450115
These are yes or no findings as the source states them, for the method shown. In cells and extracts the contact can be indirect. Here binding means that the protein was enriched with, or labelled near, the bait; the list need not be complete. For some of these results: No binding means not detected with the bait.

Amino acid sequences for entries named in this document (tags omitted). Residues count along the entry.
UniProt P38646, residues 47-679: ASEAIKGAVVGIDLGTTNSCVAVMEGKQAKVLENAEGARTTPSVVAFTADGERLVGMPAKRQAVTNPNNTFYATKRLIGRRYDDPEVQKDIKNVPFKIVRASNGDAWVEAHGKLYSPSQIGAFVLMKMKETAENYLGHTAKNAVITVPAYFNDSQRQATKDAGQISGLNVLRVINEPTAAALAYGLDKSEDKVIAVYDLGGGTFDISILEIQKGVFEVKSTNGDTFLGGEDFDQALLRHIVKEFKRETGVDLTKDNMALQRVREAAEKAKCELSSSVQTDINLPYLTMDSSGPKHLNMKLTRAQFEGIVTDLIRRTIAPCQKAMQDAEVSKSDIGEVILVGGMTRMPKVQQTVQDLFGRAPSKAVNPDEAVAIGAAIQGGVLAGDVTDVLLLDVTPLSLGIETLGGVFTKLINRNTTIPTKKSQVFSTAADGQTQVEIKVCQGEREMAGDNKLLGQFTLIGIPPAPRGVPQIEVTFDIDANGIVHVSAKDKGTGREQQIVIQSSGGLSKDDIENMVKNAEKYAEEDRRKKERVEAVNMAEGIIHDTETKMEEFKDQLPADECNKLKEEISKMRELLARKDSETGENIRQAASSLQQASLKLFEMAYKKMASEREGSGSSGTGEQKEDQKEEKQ
UniProt P08238: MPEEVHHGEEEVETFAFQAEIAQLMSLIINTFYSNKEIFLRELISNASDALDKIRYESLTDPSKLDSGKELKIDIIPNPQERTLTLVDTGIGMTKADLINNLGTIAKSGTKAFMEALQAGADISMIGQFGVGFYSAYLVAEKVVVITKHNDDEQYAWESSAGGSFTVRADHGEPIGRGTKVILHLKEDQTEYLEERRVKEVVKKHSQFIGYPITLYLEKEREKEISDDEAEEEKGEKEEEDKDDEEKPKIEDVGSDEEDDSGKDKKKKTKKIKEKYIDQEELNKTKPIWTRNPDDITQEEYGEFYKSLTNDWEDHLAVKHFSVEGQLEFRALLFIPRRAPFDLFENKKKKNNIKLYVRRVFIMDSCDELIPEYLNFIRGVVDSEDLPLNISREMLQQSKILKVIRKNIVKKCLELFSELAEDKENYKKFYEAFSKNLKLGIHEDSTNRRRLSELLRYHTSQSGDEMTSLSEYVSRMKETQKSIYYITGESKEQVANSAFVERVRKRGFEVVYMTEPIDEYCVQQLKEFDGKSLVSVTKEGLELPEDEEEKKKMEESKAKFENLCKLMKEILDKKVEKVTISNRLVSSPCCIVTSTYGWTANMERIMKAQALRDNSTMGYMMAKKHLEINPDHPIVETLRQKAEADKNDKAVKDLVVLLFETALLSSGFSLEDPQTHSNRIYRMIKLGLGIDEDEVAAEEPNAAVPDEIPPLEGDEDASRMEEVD
UniProt P11021, residues 19-654: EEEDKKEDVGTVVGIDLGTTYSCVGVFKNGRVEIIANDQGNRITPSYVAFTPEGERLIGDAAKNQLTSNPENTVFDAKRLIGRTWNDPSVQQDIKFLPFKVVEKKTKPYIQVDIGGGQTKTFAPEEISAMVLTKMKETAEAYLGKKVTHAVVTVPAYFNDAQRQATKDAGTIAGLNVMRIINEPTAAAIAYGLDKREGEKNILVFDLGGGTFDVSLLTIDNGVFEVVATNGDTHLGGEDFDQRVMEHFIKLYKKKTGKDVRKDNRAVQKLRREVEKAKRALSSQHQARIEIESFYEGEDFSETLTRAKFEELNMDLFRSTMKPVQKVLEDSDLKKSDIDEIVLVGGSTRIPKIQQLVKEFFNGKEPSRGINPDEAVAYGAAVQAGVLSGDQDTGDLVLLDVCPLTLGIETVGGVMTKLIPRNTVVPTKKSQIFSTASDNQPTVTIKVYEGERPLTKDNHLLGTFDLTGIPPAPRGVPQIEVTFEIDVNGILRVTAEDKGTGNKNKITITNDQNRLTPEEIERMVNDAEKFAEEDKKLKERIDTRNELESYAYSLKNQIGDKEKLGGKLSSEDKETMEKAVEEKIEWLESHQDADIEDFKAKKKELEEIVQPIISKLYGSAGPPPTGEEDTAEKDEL
UniProt P11142: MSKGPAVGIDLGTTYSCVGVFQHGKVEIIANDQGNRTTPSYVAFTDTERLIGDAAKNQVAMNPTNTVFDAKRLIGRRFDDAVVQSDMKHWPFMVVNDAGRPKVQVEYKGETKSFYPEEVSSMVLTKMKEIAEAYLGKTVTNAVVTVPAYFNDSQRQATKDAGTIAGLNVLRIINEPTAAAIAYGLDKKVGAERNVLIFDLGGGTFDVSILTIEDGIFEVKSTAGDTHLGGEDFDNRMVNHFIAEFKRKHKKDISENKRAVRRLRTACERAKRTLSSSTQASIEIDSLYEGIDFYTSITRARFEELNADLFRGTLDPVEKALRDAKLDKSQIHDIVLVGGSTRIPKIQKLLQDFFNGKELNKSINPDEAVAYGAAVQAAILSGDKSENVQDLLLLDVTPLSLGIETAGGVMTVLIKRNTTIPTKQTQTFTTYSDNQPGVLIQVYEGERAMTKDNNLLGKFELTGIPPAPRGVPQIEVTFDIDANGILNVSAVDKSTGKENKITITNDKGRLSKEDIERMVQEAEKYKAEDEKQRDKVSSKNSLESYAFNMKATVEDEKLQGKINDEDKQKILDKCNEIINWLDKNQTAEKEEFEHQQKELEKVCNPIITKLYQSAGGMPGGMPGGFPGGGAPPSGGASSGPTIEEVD
UniProt Q00987: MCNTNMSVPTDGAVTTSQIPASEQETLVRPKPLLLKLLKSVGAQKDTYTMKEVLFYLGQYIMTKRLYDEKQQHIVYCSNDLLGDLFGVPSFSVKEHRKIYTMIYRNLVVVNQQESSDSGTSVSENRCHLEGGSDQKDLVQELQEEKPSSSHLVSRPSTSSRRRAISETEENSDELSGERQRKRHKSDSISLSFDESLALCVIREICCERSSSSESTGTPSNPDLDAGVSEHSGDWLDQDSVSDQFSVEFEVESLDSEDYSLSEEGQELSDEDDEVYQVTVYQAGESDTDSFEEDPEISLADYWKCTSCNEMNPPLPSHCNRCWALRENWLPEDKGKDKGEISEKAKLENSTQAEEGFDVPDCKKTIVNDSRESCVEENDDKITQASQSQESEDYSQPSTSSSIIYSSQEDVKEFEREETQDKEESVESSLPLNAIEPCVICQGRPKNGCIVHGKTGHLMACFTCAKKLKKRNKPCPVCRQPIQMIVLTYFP
UniProt P13010: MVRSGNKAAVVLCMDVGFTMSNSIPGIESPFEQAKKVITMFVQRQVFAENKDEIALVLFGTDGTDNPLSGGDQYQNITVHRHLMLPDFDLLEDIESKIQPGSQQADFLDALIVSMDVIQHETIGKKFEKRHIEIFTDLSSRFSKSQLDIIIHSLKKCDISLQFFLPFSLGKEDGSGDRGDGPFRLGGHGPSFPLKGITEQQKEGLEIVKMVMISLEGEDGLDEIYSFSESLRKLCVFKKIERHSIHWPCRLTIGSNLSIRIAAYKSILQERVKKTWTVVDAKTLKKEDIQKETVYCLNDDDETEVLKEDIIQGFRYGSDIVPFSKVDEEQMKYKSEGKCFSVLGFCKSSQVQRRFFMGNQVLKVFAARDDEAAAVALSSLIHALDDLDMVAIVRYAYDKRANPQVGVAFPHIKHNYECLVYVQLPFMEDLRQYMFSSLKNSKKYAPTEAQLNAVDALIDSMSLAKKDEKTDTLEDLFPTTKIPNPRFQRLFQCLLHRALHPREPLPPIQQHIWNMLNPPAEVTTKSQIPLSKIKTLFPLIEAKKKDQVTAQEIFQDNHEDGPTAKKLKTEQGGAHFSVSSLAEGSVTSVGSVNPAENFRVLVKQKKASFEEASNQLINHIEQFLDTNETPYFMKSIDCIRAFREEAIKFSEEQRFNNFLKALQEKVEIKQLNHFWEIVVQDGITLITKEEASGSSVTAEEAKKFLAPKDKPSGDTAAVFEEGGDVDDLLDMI

These substances were tested against T1, DAB2IP (endogenous, SW48) (human (endogenous in SW48)) (UniProt Q5VWQ8) (assay: affinity purification with mass spectrometry).
T1 sequence: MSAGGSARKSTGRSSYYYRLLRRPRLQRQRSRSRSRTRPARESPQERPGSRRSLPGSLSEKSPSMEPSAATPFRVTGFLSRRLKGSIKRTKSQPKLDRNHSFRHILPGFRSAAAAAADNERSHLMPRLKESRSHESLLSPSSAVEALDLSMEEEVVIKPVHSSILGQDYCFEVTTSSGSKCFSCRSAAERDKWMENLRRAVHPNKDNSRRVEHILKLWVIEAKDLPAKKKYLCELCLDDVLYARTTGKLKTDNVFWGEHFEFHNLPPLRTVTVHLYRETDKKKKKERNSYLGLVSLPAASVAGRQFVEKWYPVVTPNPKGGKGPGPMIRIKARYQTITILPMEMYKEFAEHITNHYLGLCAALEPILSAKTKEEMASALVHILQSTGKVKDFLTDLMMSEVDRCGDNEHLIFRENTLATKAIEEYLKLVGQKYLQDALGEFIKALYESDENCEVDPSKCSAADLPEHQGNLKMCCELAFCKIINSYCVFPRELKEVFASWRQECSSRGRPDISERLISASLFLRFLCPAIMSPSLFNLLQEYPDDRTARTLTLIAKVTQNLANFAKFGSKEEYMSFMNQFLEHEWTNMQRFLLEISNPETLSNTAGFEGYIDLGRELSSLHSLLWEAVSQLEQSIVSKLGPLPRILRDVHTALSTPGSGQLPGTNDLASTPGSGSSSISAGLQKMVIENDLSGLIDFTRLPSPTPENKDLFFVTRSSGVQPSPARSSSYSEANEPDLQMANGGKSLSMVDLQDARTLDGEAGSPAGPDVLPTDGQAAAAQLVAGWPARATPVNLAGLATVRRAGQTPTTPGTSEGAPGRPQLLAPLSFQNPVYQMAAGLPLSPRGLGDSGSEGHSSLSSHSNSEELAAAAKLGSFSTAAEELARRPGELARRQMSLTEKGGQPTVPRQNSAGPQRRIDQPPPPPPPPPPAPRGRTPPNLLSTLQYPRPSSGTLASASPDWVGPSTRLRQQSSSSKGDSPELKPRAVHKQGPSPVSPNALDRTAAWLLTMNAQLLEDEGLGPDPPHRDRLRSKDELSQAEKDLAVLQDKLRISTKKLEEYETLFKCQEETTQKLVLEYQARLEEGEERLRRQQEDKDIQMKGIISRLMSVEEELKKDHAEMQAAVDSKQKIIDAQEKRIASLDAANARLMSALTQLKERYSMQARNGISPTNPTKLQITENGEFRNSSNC

| binding | Substance |
| --- | --- |
| binds | GRP75 (endogenous, SW48) (from UniProt P38646 47-679) |
| binds | HSP90AB1 (endogenous, SW48) (from UniProt P08238 1-724) |
| binds | HSPA5 (endogenous, SW48) (from UniProt P11021 19-654) |
| binds | HSPA8 (endogenous, SW48) (from UniProt P11142 1-646) |
| no binding | MDM2 (endogenous, SW48) (from UniProt Q00987 1-491) |
| binds | XRCC5 (endogenous, SW48) (from UniProt P13010 1-732) |

Each substance was assayed against p53 (endogenous, wild type, SW48) (human (endogenous in SW48)) (UniProt P04637) (assay: affinity purification with mass spectrometry).

| binding | Substance |
| --- | --- |
| binds | XRCC5 (endogenous, SW48) (from UniProt P13010 1-732) |
